Values quoted from earlier work, collected in US20190091218A1 (priority 2016, published 2019).

Conditions: in vivo

O=C(O)COCCN1CCN([C@H](c2ccccc2)c2ccc(Cl)cc2)CC1 [levocetirizine]
time to peak plasma level: 0.9 h
